Reference: patent US4618598A, “Method of regulating hormone function or release” (Duke University, priority 1982, dated 1986)
Read-outs that look alike come from different tables or passages of the source. Not every detail of the peptide structures is certain; ends, links or a residue may be inferred.

Test system: pituitary cell cultures
Procedure: Luteinizing hormone release from pituitary cell cultures is dependent upon the binding of the gonadotropin releasing hormone to its specific cell surface receptor. […] In FIG. 2 the antagonist activity of GnRH-Ant was measured in a cell culture bioassay. Two day pituitary cell cultures were incubated with 10^-8 M, 10^-9 M, or no GnRH at the indicated concentration of antagonist. After the 5 h incubation period, the medium was assayed for LH by RIA using rat LH antisera (LHS-4), highly purified rat LH for labeling (LH I-4), and rat LH standard (LH-RP-1) which were made available by a grant from the NIAMDD Hormone Distribution Office (prepared by Dr. A. Parlow, Torrance, CA.). The assay was performed as described below, except that second antibody was used to separate the bound and free [^ 125 -I]-LH.
Cell cultures were prepared, by collagenase-hyaluronidase dispersion of pituitaries from 25-day-old female weanling rats. The cultures were then incubated for 2 days at 37 C. in culture plates. […] After the culture period, the cells were washed free of debris and sera with medium 199 containing 0.3% bovine serum albumin (Cohn fraction V; 199/BSA) and incubated with the indicated compounds. Medium 199 normally contains 1 mM Ca^2+. Cells were incubated in 1.0 ml medium for 3 h. […]

For `CC(C)C[C@H](NC(=O)[C@@H](CCCCNC(=O)CCC(=O)OCCOC(=O)CCC(=O)NCCCC[C@@H](NC(=O)[C@H](Cc1ccc(O)cc1)NC(=O)[C@H](CO)NC(=O)[C@H](Cc1c[nH]c2ccccc12)NC(=O)[C@H](Cc1c[nH]cn1)NC(=O)[C@@H]1CCC(=O)N1)C(=O)N[C@@H](CC(C)C)C(=O)N[C@@H](CCCNC(=N)N)C(=O)N1CCC[C@H]1C(=O)NCC(N)=O)NC(=O)[C@H](Cc1ccc(O)cc1)NC(=O)[C@H](CO)NC(=O)[C@H](Cc1c[nH]c2ccccc12)NC(=O)[C@H](Cc1c[nH]cn1)NC(=O)[C@@H]1CCC(=O)N1)C(=O)N[C@@H](CCCNC(=N)N)C(=O)N1CCC[C@H]1C(=O)NCC(N)=O` [(D-Lys^6 -GnRH)2 -EGS dimer], the “ED10 of LH release” value (in terms of D-Lys^6 -GnRH concentration) was “approximately 3×10^-11” and the “ED10 of LH release” value (in terms of dimer) was ~1.5×10^-11.
